From PMC8384158
These are yes or no findings as the source states them, for the method shown. In cells and extracts the contact can be indirect. Some entries that bind do so weakly or less than the wild type.

Chains of the proteins cited; added tags and fusions are not shown. Residues count along the entry.
UniProt P30101, residues 25-505: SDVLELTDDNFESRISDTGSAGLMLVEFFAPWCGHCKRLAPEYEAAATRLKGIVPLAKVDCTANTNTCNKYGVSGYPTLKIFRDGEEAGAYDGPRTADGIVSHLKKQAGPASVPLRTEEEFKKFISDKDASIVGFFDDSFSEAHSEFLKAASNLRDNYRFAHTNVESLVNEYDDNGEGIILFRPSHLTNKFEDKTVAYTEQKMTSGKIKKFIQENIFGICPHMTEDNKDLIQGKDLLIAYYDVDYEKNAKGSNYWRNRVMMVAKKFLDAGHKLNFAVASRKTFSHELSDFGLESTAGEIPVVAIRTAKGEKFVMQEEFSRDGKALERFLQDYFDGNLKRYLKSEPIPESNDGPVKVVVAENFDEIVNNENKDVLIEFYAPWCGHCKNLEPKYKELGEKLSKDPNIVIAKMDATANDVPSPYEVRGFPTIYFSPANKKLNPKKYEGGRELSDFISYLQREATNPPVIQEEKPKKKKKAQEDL
UniProt P54727: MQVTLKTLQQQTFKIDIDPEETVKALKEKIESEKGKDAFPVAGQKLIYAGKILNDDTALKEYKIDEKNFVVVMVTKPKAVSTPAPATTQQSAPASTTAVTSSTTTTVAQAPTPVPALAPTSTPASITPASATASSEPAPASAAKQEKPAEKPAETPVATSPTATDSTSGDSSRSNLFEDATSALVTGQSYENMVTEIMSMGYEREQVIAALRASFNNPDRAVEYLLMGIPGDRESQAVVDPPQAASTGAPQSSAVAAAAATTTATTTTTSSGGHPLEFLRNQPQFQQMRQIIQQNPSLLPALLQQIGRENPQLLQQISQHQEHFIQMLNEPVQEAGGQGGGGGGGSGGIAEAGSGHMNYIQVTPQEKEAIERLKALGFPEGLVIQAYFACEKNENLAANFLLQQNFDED
UniProt P0DMV8: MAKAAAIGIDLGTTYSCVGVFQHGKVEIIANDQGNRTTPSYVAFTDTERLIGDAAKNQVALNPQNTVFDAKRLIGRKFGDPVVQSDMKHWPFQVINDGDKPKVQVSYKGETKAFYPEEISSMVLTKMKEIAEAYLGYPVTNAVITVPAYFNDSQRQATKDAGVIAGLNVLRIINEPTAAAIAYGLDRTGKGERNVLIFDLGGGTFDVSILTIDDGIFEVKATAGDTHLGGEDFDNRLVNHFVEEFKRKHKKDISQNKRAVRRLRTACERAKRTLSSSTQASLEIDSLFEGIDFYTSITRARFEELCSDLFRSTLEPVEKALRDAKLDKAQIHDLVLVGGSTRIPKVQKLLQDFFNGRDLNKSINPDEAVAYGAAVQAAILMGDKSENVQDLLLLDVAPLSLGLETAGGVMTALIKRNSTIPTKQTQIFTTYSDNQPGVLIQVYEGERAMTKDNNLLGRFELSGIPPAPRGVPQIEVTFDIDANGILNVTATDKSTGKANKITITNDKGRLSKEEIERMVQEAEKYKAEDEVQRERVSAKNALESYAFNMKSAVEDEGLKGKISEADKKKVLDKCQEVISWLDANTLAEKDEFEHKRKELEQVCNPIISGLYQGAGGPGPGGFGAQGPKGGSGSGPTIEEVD
UniProt P11021, residues 19-654: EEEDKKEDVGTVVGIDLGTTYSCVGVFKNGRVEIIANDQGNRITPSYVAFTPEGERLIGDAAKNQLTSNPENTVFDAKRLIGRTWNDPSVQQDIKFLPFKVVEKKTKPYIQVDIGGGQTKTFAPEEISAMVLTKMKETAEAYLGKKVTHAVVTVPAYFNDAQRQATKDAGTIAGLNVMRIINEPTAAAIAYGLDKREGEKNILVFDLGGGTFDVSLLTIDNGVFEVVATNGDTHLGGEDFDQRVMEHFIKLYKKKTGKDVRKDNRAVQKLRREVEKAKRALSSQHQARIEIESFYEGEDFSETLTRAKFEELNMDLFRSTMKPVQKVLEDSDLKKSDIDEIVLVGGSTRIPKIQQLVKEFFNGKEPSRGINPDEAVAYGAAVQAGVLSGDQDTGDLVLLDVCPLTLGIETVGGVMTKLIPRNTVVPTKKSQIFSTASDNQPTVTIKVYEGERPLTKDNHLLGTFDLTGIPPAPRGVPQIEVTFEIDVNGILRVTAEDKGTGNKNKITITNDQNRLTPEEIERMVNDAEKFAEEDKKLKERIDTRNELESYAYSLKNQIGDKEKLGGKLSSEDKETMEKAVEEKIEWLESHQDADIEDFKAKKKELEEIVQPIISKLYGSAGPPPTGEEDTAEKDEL

Tests used:
TAP–Bag-1S (human) [1] = target: T1, TAP–Bag-1S (human) (UniProt Q99933); experiment: pull-down; MCF-7 cells transfected with TAP–Bag-1 isoform; 500 μg lysate on IgG Sepharose overnight at 4°C, released with AcTEV protease; bound fraction immunoblotted
T1 sequence: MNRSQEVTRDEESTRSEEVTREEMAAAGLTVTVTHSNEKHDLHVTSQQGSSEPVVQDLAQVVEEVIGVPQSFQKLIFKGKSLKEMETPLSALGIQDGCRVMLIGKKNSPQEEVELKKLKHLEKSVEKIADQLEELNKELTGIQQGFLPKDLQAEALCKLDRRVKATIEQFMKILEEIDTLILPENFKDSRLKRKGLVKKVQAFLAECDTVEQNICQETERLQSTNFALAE

TAP–Bag-1L (human) [2] = target: T2, TAP–Bag-1L (human) (UniProt Q99933); experiment: as above
T2 sequence: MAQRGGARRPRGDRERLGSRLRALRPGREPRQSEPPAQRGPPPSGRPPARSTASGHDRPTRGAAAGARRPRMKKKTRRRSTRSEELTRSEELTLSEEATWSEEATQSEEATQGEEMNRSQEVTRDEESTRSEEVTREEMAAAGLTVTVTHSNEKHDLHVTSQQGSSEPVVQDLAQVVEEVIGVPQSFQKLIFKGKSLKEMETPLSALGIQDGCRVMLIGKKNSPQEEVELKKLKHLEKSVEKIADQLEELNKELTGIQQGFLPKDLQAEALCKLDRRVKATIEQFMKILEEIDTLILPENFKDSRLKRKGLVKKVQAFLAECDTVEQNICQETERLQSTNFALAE

TAP–Bag-1S (human) [3] = target: T1, TAP–Bag-1S (human); experiment: pull-down; MCF-12A cells transfected with TAP–Bag-1 isoform; 500 μg lysate on IgG Sepharose overnight at 4°C, released with AcTEV protease; bound fraction immunoblotted
TAP–Bag-1L (human) [4] = target: T2, TAP–Bag-1L (human); experiment: as above
[5] = target: T3, Bag-1 (endogenous) (human (endogenous in MCF-7, MCF-12A and breast tissue)) (UniProt Q99933); experiment: co-IP; breast tumor and neighboring normal tissue lysates (12 patients, T-PER extraction, pre-cleaned with protein A/G beads); monoclonal α-Bag-1 on Dynabeads Protein G overnight at 4°C; immunoblot
T3 sequence: T2 sequence

[6] = target: T3, Bag-1 (endogenous) (human (endogenous in MCF-7, MCF-12A and breast tissue)); experiment: co-IP; untransfected MCF-7 and MCF-12A cells; 250 μg extract with monoclonal α-Bag-1 on Dynabeads Protein G overnight at 4°C; uncoupled beads as control; immunoblot

Row | Substance | binding (TAP–Bag-1S (human) [1]) | binding (TAP–Bag-1L (human) [2]) | binding (TAP–Bag-1S (human) [3]) | binding (TAP–Bag-1L (human) [4]) | binding [5] | binding [6]
1 | Calreticulin (from UniProt P27797 18-417) | binds | binds | binds | binds | – | –
2 | PDIA3 (from UniProt P30101 25-505) | binds | binds | – | – | – | –
3 | Rad23B (from UniProt P54727 1-409) | binds | binds | – | – | binds | binds

More lines, now with the values ahead:

Row | binding (TAP–Bag-1S (human) [1]) | binding (TAP–Bag-1L (human) [2]) | binding (TAP–Bag-1S (human) [3]) | binding (TAP–Bag-1L (human) [4]) | binding [5] | binding [6] | Substance
4 | binds | binds | – | – | binds | – | Hsp70 (from UniProt P0DMV8 1-641)
5 | binds | binds | – | – | – | – | BiP (from UniProt P11021 19-654)
6 | binds | binds | – | – | binds | binds | VCP/p97 (from UniProt P55072 1-806)
